Source: the supplement of paper PMC10735217
Where “and” joins values, the source holds several entries; their conditions need not be identical. Equal entries are not always repeated. Structures can show the parent of a compound that is named as a salt. Some of the results follow. Single values are uncertain here, since repeats match poorly.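 Human kidney-derived cells stably carry a construct in which eight TEAD-binding elements drive luciferase, measured by luminescence in a drug-repurposing library screen. A hit is any compound whose signal exceeds the plate mean by more than five robust Z scores.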

System: HEK293A TEAD-LUC reporter
Test: TEAD-luciferase reporter activity (YAP activation), robust Z score vs plate; higher = stronger YAP/TEAD activation
Conditions: 24 h

SMILES | TEAD-luciferase reporter activity (compound concentration: 200 nM) | TEAD-luciferase reporter activity (compound concentration: 2 uM) | TEAD-luciferase reporter activity (compound concentration: 10 uM)
O=S(=O)(c1ccccc1F)N1CCOc2c(N3CCNCC3)cccc21 | inactive: -0.279 | inactive: -0.133 | inactive: -1.11
COc1cc2c(cc1O)CC1c3c(cc(O)c(OC)c3-2)CCN1C (stereo unspecified) [boldine] | inactive: -2.09 | inactive: -0.248 | inactive: 1.64
Oc1ccc2c(c1)C(Cc1c[nH]cn1)CC2 (stereo unspecified) | inactive: 0.714 | inactive: -0.59 | inactive: 0.116
O=C(c1ccc2c(c1)OCO2)N1CCC(C(=O)O)(c2ccccc2)CC1 | inactive: -0.968 |  | inactive: -0.656
COC1=C(C)C(=O)C2=C(C1=O)[C@@H](COC(N)=O)[C@]1(OC)[C@H]3N[C@H]3CN21 [Mitomycin A] | inactive: -0.534 | inactive: -2 | inactive: 0.0624
c1ccc2c(c1)CC1NCC2c2ccccc21 (stereo unspecified) | inactive: -1.19 | inactive: 0.432 | inactive: 0.351
C[C@H](Nc1ncnc2[nH]cnc12)c1nc2ccc(F)cc2c(=O)n1-c1ccccc1 [Acalisib] | inactive: -1.86 | inactive: -0.754 | inactive: -0.073
CC(CCc1ccccc1)NC(C)C(O)c1cc(I)c(O)c(I)c1 (stereo unspecified) | inactive: -0.605 | inactive: -0.273 | inactive: 0.455
N[C@@H](Cc1ccc(N(CCCl)CCCl)cc1)C(=O)O | inactive: -0.369 |  | inactive: -0.49
N[C@@H](Cc1ccc(N(CCCl)CCCl)cc1)C(=O)O [Melphaplex] |  | inactive: -1.26 | 
CN1CCC2C(c3ccccc3)Cc3c(ccc(O)c3O)C2C1 (stereo unspecified) | inactive: -1.77 | inactive: 1.22 | inactive: 0.431
c1cnc2c(c1)CC1(CN3CCC1CC3)O2 (stereo unspecified) | inactive: -0.165 | inactive: -1.46 | inactive: -0.195
O=C(C1CCc2cc(Cl)c(Cl)cc21)N1CCSC[C@H]1CN1CCCC1 (stereo partly specified) | inactive: -1.64 | inactive: -0.955 | inactive: -0.964
N=C1NC(=O)C(c2ccccc2)(c2ccccc2)N1 | inactive: -1.32 | inactive: 0.061 | inactive: -0.464
COC(=O)[C@@]12OC[C@]34[C@H]([C@@H](O)[C@@H]1O)[C@@]1(C)CC(=O)C(O)=C(C)[C@@H]1C[C@H]3OC(=O)[C@H](OC(=O)/C=C(\C)C(C)C)[C@@H]24 [Bruceantin] | inactive: 0.0972 | inactive: -1.85 | inactive: -1.42
C[N+]1(CCCS(=O)(=O)O)[C@@H]2CC[C@H]1CC(OC(=O)C(CO)c1ccccc1)C2 (stereo partly specified) | inactive: -1.28 | inactive: -0.449 | inactive: -0.753
CCN1C(=O)CN2CCOC2(c2ccccc2F)c2cc(Cl)ccc21 (stereo unspecified) | inactive: 0.217 | inactive: -1.71 | inactive: -0.39
COCC(=O)N1CCCC1C(=O)N1CCC(N2Cc3ccccc3C2=O)CC1 (stereo unspecified) | inactive: -2.31 |  | inactive: 0.413
CO[C@H]1CC=C2CCN3CCC4=C(CC(=O)OC4)[C@]23C1 [Dihydro-beta-erythroidine] | inactive: -1.65 | inactive: -0.283 | inactive: 3.27

A second format for some results above:

| SMILES | TEAD-luciferase reporter activity (compound concentration: 200 nM) | TEAD-luciferase reporter activity (compound concentration: 2 uM) | TEAD-luciferase reporter activity (compound concentration: 10 uM) |
| --- | --- | --- | --- |
| CN1CCC2C(c3ccccc3)Cc3c(ccc(O)c3O)C2C1 (stereo unspecified) | inactive: -1.77 | inactive: 1.22 | inactive: 0.431 |
| COC(=O)[C@@]12OC[C@]34[C@H]([C@@H](O)[C@@H]1O)[C@@]1(C)CC(=O)C(O)=C(C)[C@@H]1C[C@H]3OC(=O)[C@H](OC(=O)/C=C(\C)C(C)C)[C@@H]24 [Bruceantin] | inactive: 0.0972 | inactive: -1.85 | inactive: -1.42 |
| COCC(=O)N1CCCC1C(=O)N1CCC(N2Cc3ccccc3C2=O)CC1 (stereo unspecified) | inactive: -2.31 |  | inactive: 0.413 |

(list continues)

SMILES | TEAD-luciferase reporter activity (compound concentration: 200 nM) | TEAD-luciferase reporter activity (compound concentration: 2 uM) | TEAD-luciferase reporter activity (compound concentration: 10 uM)
C[C@@H]1CN(Cc2ccc(F)cc2)CCN1C(=O)COc1ccc(Cl)cc1NC(N)=O | inactive: 0.0167 | inactive: -2.33 | inactive: 0.836
CCN(CC)C(C)C=C(c1cccs1)c1cccs1 (stereo unspecified) [Diethylthiambutene] | inactive: -0.426 | inactive: 1.11 | inactive: 0.405
CCOC(=O)C1N=C(c2ccccc2F)c2cc(Cl)ccc2N(C(=O)NC)C1=O (stereo unspecified) [ethyl carfluzepate] | inactive: -0.788 | inactive: -0.713 | inactive: 0.501
C#CCN[C@H]1CCc2ccc(OC(=O)N(C)CC)cc21 | inactive: -0.958 | inactive: 0.717 | inactive: 0.626
C/C=C1\CN2CC[C@H]1CC2[C@H](O)c1ccnc2ccc(OC)cc12 (stereo partly specified) | inactive: -0.811 | inactive: -1.58 | inactive: 1.47
COc1ccc(CC(=O)N2Cc3ccccc3CC3(CCCN3C)C2)cc1 (stereo unspecified) | inactive: -0.237 |  | inactive: 0.234
O=C(O)Cc1nc(-c2ccc(Cl)cc2)oc1-c1ccco1 | inactive: -1.2 | inactive: 0.334 | inactive: 2.28
O=C(O)C1[O][Sb]2[O]C(=O)C([O]2)C(C(=O)O)[O][Sb]2[O]C(=O)C1[O]2 (stereo unspecified) [Potassium antimonyl tartrate sesquihydrate] | inactive: -0.591 |  | inactive: 0.954
CCC(CC)(CNC(=O)CCCO)c1cccc(OC)c1 | inactive: -1.14 | inactive: -0.361 | inactive: 1.57
COc1ccc(CC(=O)N2Cc3ccccc3CC3(CCCCN3C)C2)cc1 (stereo unspecified) | active: 5.9 |  | active: 7.28
CNC1=Nc2ccc(Cl)cc2C(c2ccc[nH]2)=NC1 | inactive: -0.707 | inactive: -1.13 | inactive: 0.301
COC[C@]12CNCC[C@@]1(c1ccc(Cl)c(Cl)c1)C2 | inactive: -2.68 | inactive: -1.69 | inactive: 0.118
NC(=O)CNC1Cc2ccccc2C1 [indantadol] | inactive: -0.641 | inactive: -1.51 | inactive: 0.243
O=C1CN=C(c2ccccc2)c2c(sc3c2CCCC3)N1 [bentazepam] | inactive: -0.747 | inactive: 0.0198 | inactive: -0.3
CCN(CC)CC(OC(=O)c1ccccc1)c1ccccc1 (stereo unspecified) | inactive: 2.67 | inactive: 0.048 | inactive: 2.52
COc1ccc(C(=O)N2CCCC2=O)cc1 [aniracetam] | inactive: -2.61 | inactive: -1.21 | inactive: 0.626
CCCN(CCC)C1Cc2cc(OCC)c(C(N)=O)cc2C1 (stereo unspecified) | inactive: -0.767 | inactive: -0.412 | inactive: -0.662
CN1CCC2(CCN3CCc4c(oc5ccccc45)C3C2)N(C)C1=O (stereo unspecified) | inactive: 0.603 | inactive: -0.887 | inactive: -0.144
CN1CC2CCCCC2(c2ccc(Cl)c(Cl)c2)C1 (stereo unspecified) | inactive: -0.803 | inactive: -1.25 and inactive: -0.508 | inactive: -1.13
